# Measurements as given in the supplement of paper PMC9135407.
# Values joined by “and” are separate entries in the source; they are usually repeats but may differ in a detail not shown here. Equal entries are not always repeated. Structures can show the parent of a compound that is named as a salt. ± gives the standard deviation of the averaged measurements. The list shows a part of the results. Part of the spread comes from offsets between plates or batches.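 Assay uses culture-activated primary human stellate myofibroblasts; lipid droplet recovery indicates inactivation. Measured: proportion of Hoechst-counted cells over a plate-specific Bodipy cutoff, duplicate wells, DMSO and nortriptyline as per-plate negative and positive controls. A hit scores, control-normalized, above the plate's top-tenth-percentile nortriptyline wells or ranks among its three best wells. Final well concentrations not reported.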
# Test system: primary human hepatic stellate cells (donor 1)
# Assay: percent Bodipy-positive cells; higher = more lipid droplet accumulation
# Conditions: 48 h
# [1] = library stock concentration: 10 mM
# [2] = library stock concentration: 3.33 mM
# [3] = library stock concentration: 80 uM
# [4] = library stock concentration: 1 mM
smiles,measurement,setting,value
CC=CC(=O)N(CC)c1ccccc1C [Crotamiton],percent Bodipy-positive cells,,11.4 ± 6.1%
same,percent Bodipy-positive cells,[1],32.4 ± 5.6%
CC1CC2C3CCC4=CC(=O)C=CC4(C)C3(F)C(O)CC2(C)C1C(=O)CO (stereo not given),percent Bodipy-positive cells,[1],27.7 ± 6.4%
CNCCc1ccccn1 [Betahistine mesylate],percent Bodipy-positive cells,,39.1 ± 2.3%
CNCCc1ccccn1 [Betahistine 2HCl],percent Bodipy-positive cells,[2],13.2 ± 2.1%
same,percent Bodipy-positive cells,[1],26.3 ± 4.4%
CNCCc1ccccn1 [Betahistine hydrochloride],percent Bodipy-positive cells,library stock concentration: 9.6 mM,20.2 ± 2.8%
CC(C)Oc1ccc(-c2cnc3c(-c4ccnc5ccccc45)cnn3c2)cc1,percent Bodipy-positive cells,[2],47.4 ± 11%
same,percent Bodipy-positive cells,[1],33 ± 18%
c1cn2cc(-c3ccc4cn[nH]c4c3)nc(Nc3ccc(N4CCOCC4)cc3)c2n1,percent Bodipy-positive cells,[2],97.8 ± 1.8%
same,percent Bodipy-positive cells,[1],99.06 ± 0.27%
CC1=C(C)C(=O)C(C(CCCCCC(=O)O)c2ccccc2)=C(C)C1=O (stereo not given),percent Bodipy-positive cells,[1],38.4 ± 11%
NCCCCCC(=O)O [?6-??-?Aminocaproic acid],percent Bodipy-positive cells,[2],8.6 ± 2.8%
same,percent Bodipy-positive cells,[1],13.3 ± 0.18%
NCCCCCC(=O)O [Aminocaproic acid],percent Bodipy-positive cells,,7.66 ± 3.1%
same,percent Bodipy-positive cells,library stock concentration: 15.2 mM,2.87 ± 1.6%
NCCCCCC(=O)O [6-aminocaproic acid],percent Bodipy-positive cells,[1],9.69 ± 1.9%
NCCCCCC(=O)O [6-Aminohexanoic acid],percent Bodipy-positive cells,[1],52.7 ± 3.6%
CC(C)CCNC(=O)[C@H](CC(C)C)NC(=O)[C@H]1O[C@@H]1C(=O)O [Loxistatin Acid (E-64C)],percent Bodipy-positive cells,[2],22.9 ± 8.9%
same,percent Bodipy-positive cells,[1],30.5 ± 2.7%
c1ccc2c(CCNc3ccc(Nc4ccncc4)cc3)c[nH]c2c1,percent Bodipy-positive cells,[3],27.7 ± 12%
same,percent Bodipy-positive cells,library stock concentration: 400 uM,31.1 ± 2.3%
same,percent Bodipy-positive cells,library stock concentration: 2 mM,34.9 ± 7.9%
same,percent Bodipy-positive cells,[2],37.4 ± 4.7%
COc1ccc2c(Oc3ccc(NC(=O)c4c(C)n(CC(C)(C)O)n(-c5ccccc5)c4=O)nc3)ccnc2c1,percent Bodipy-positive cells,[2],9.08 ± 3.5%
same,percent Bodipy-positive cells,[1],10.4 ± 1.6%
COc1c(C)cnc(Cn2cnc3c(Cl)nc(N)nc32)c1C,percent Bodipy-positive cells,[1],70.2 ± 0.83%
CN(C)C(=N)NC(=N)N [Metformin hydrochloride],percent Bodipy-positive cells,,27.5 ± 4.6%
same,percent Bodipy-positive cells,[1],39.3 ± 4.5%
same,percent Bodipy-positive cells,library stock concentration: 12.1 mM,17.4 ± 4.9%
CN(C)C(=N)NC(=N)N [Metformin],percent Bodipy-positive cells,library stock concentration: 15.5 mM,7.49 ± 2.1%
Cc1csc(-c2nnc(Nc3ccc(Oc4ncccc4-c4ccnc(N)n4)cc3)c3ccccc23)c1,percent Bodipy-positive cells,[2],8.66 ± 1.2%
same,percent Bodipy-positive cells,[1],15.1 ± 3.6%
Nc1nc2c(ncn2COC(CO)CO)c(=O)[nH]1 [Ganciclovir],percent Bodipy-positive cells,,8.34 ± 0.19%
same,percent Bodipy-positive cells,[2],10.9 ± 5.3%
same,percent Bodipy-positive cells,library stock concentration: 7.8 mM,9.84 ± 1.3%
same,percent Bodipy-positive cells,[1],19.6% and 33%
CCCCCCCCCCCCCCCC(=O)OC[C@H](O)[C@H]1OC(=O)C(O)=C1O [Ascorbyl palmitate],percent Bodipy-positive cells,library stock concentration: 4.8 mM,2.27 ± 0.65%
CCCCC[C@H](O)/C=C/[C@H]1C2CC(CO2)[C@@H]1C/C=C/CCCC(=O)O (stereo not given in full),percent Bodipy-positive cells,[4],18.9 ± 8%
Cc1ccc(NC(=O)NCCSCc2ccc(CN(C)C)o2)cc1Cl,percent Bodipy-positive cells,[1],86.5 ± 2.1%
COc1ccc(C2(O)OC(=O)C(c3ccc4c(c3)OCO4)=C2Cc2cc(OC)c(OC)c(OC)c2)cc1 (stereo not given),percent Bodipy-positive cells,[1],28.3 ± 2.1%
CCCCCCCCCCCCCCCCOC[C@H](COP(=O)([O-])OCCCCCC[N+](C)(C)C)OC(C)=O [Hexanolamino PAF C-16],percent Bodipy-positive cells,[4],13.5 ± 1.5%
N#C/C(=C\c1ccc(O)c(O)c1)C(=O)NCCCCc1ccccc1,percent Bodipy-positive cells,[1],6.59 ± 1.2%
Cc1noc(NS(=O)(=O)c2cccc3c(N(C)C)cccc23)c1C,percent Bodipy-positive cells,[1],7.16 ± 0.48%
CCCCCC/C=C\CCCC(=O)CC(=O)N[C@H]1CCOC1=O [N-3-oxo-tetradec-7(Z)-enoyl-L-Homoserine lactone],percent Bodipy-positive cells,[4],13.4 ± 1.8%
"CC[C@@H](CO)Nc1nc(NCc2ccc(-c3ccccn3)cc2)c2ncn(C(C)C)c2n1 [CR8, (S)-Isomer]",percent Bodipy-positive cells,[2],31.9 ± 3.5%
CCN(CC)C(=O)c1ccc(O)c(OC)c1 [Vanillic acid diethylamide],percent Bodipy-positive cells,[1],27.5 ± 6.6%
CCN(CC)C(=O)c1ccc(O)c(OC)c1 [Ethamivan],percent Bodipy-positive cells,,22 ± 4.7%
same,percent Bodipy-positive cells,library stock concentration: 9 mM,4.09 ± 1.9%
CN(C)c1ccc(-c2nc3c(N4CCN(CC(=O)Nc5nccs5)CC4)c(Cl)cnc3[nH]2)cc1,percent Bodipy-positive cells,[2],86.51 ± 0.13%
same,percent Bodipy-positive cells,[1],96.8 ± 2%
NC1(C(=O)O)CC1 [1-Aminocyclopropanecarboxylic acid hydrochloride],percent Bodipy-positive cells,[1],46.16 ± 0.26%
COc1ccc(-c2cc(=O)c3c(O)c(OC)c(OC)c(OC)c3o2)cc1 [Gardenin b],percent Bodipy-positive cells,[1],57.2 ± 20%
C[C@H]1[C@H](C)CC[C@]2(C(=O)O)CC[C@]3(C)C(=CC[C@@H]4[C@@]5(C)CC[C@H](O)C(C)(C)[C@@H]5CC[C@]43C)[C@H]12 [Ursolic acid],percent Bodipy-positive cells,,22.2 ± 1.8%
C[C@H]1[C@H](C)CC[C@]2(C(=O)O)CC[C@]3(C)C(=CC[C@@H]4[C@@]5(C)CC[C@H](O)C(C)(C)[C@@H]5CC[C@]43C)[C@H]12 [Ursolic Acid],percent Bodipy-positive cells,[2],5.38 ± 1.8%
same,percent Bodipy-positive cells,[1],10.6 ± 0.74%
O=C(c1ccc(F)cc1)C1CCN(CCn2c(=O)[nH]c3ccccc3c2=O)CC1 [Ketanserin tartrate],percent Bodipy-positive cells,library stock concentration: 5.1 mM,19.4% and 2.16%
same,percent Bodipy-positive cells,[1],41.1% and 39.9% and 18.7%
O=C(c1ccc(F)cc1)C1CCN(CCn2c(=O)[nH]c3ccccc3c2=O)CC1 [Ketanserin tartrate hydrate],percent Bodipy-positive cells,,35.9 ± 4.1%
O=C(c1ccc(F)cc1)C1CCN(CCn2c(=O)[nH]c3ccccc3c2=O)CC1 [Ketanserin],percent Bodipy-positive cells,[2],7.772 ± 0.071%
same,percent Bodipy-positive cells,[1],32 ± 14%
NC(=O)Nc1cc(-c2cccc(F)c2)sc1C(=O)N[C@H]1CCCNC1,percent Bodipy-positive cells,[3],10.5 ± 5%
same,percent Bodipy-positive cells,[1],97.3% and 84.8% and 100%
CC(=O)N[C@@H](CSC/C=C(\C)CC/C=C(\C)CCC=C(C)C)C(=O)O [Acetyl (N)-s-farnesyl-l-cysteine],percent Bodipy-positive cells,library stock concentration: 13.6 mM,15.6 ± 6.2%
CC(=O)N[C@@H](CSC/C=C(\C)CC/C=C(\C)CCC=C(C)C)C(=O)O [N-acetyl-S-farnesyl-L-Cysteine],percent Bodipy-positive cells,[4],9.58 ± 1.9%

# In another format: entries from further up
smiles	measurement	setting	value
CCCCC[C@H](O)/C=C/[C@H]1C2CC(CO2)[C@@H]1C/C=C/CCCC(=O)O (stereo not given in full)	percent Bodipy-positive cells	[4]	18.9 ± 8%
Cc1ccc(NC(=O)NCCSCc2ccc(CN(C)C)o2)cc1Cl	percent Bodipy-positive cells	[1]	86.5 ± 2.1%
COc1ccc(C2(O)OC(=O)C(c3ccc4c(c3)OCO4)=C2Cc2cc(OC)c(OC)c(OC)c2)cc1 (stereo not given)	percent Bodipy-positive cells	[1]	28.3 ± 2.1%
CCCCCCCCCCCCCCCCOC[C@H](COP(=O)([O-])OCCCCCC[N+](C)(C)C)OC(C)=O [Hexanolamino PAF C-16]	percent Bodipy-positive cells	[4]	13.5 ± 1.5%
